Source: PMC4074815, “An Impermeant Ganetespib Analog Inhibits Extracellular Hsp90-Mediated Cancer Cell Migration that Involves Lysyl Oxidase 2-like Protein” (Cancers, 2014)
These are yes or no findings as the source states them, for the method shown. Binding seen in cells or lysates may run through a third protein. A yes stands for co-enrichment or nearness to the bait. Other partners may have been found.

By UniProt entry, the sequences of proteins in these tests, tags left out. Residues count along the entry.
UniProt P28799, residues 18-593: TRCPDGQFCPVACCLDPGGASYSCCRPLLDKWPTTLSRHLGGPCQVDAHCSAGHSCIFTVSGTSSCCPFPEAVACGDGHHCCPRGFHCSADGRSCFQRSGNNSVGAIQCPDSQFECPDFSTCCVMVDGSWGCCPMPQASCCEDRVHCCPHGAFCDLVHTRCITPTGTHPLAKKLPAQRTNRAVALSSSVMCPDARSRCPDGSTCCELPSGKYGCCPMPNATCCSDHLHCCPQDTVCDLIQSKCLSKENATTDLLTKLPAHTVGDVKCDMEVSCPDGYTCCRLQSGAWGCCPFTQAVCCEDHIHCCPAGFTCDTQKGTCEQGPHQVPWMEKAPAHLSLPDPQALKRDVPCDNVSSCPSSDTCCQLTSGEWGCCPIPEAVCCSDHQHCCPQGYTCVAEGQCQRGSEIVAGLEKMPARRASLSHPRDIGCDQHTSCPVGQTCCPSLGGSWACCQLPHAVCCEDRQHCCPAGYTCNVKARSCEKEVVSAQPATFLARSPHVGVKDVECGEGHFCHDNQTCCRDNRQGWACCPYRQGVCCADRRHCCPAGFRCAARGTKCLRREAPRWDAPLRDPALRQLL
UniProt Q9Y4K0, residues 26-774: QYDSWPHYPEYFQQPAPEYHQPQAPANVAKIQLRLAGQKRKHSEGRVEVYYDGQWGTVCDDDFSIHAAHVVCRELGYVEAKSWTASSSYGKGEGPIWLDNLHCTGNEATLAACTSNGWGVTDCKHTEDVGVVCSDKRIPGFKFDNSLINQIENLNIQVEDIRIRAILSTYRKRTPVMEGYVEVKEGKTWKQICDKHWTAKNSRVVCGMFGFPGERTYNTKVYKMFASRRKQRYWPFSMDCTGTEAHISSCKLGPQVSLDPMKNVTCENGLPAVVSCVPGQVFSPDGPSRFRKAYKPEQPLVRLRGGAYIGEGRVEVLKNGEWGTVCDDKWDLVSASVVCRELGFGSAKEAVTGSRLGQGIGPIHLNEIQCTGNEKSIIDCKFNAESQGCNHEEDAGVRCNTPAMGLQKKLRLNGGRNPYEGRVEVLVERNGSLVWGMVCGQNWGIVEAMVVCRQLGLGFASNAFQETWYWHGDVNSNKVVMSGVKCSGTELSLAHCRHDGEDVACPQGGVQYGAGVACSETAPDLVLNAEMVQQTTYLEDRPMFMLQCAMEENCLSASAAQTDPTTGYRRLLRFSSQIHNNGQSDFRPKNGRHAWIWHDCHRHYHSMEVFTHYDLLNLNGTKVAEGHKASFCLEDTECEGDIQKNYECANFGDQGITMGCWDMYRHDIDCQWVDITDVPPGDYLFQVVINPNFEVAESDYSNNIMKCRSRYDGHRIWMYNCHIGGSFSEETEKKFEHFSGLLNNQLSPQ

B1: Galactosylceramidase isoform a precurso (protein, UniProt P54803 43-685)
chain: YVLDDSDGLGREFDGIGAVSGGGATSRLLVNYPEPYRSQILDYLFKPNFGASLHILKVEIGGDGQTTDGTEPSHMHYALDENYFRGYEWWLMKEAKKRNPNITLIGLPWSFPGWLGKGFDWPYVNLQLTAYYVVTWIVGAKRYHDLDIDYIGIWNERSYNANYIKILRKMLNYQGLQRVKIIASDNLWESISASMLLDAELFKVVDVIGAHYPGTHSAKDAKLTGKKLWSSEDFSTLNSDMGAGCWGRILNQNYINGYMTSTIAWNLVASYYEQLPYGRCGLMTAQEPWSGHYVVESPVWVSAHTTQFTQPGWYYLKTVGHLEKGGSYVALTDGLGNLTIIIETMSHKHSKCIRPFLPYFNVSQQFATFVLKGSFSEIPELQVWYTKLGKTSERFLFKQLDSLWLLDSDGSFTLSLHEDELFTLTTLTTGRKGSYPLPPKSQPFPSTYKDDFNVDYPFFSEAPNFADQTGVFEYFTNIEDPGEHHFTLRQVLNQRPITWAADASNTISIIGDYNWTNLTIKCDVYIETPDTGGVFIAGRVNKGGILIRSARGIFFWIFANGSYRVTGDLAGWIIYALGRVEVTAKKWYTLTLTIKGHFTSGMLNDKSLWTDIPVNFPKNGWAAIGTHSFEFAQFDNFLVEATR
B2: MAM domain containing 2 (protein, UniProt Q7Z304 19-686)
chain: LDLPAGSCAFEESTCGFDSVLASLPWILNEEGHYIYVDTSFGKQGEKAVLLSPDLQAEEWSCLRLVYQITTSSESLSDPSQLNLYMRFEDESFDRLLWSAKEPSDSWLIASLDLQNSSKKFKILIEGVLGQGNTASIALFEIKMTTGYCIECDFEENHLCGFVNRWNPNVNWFVGGGSIRNVHSILPQDHTFKSELGHYMYVDSVYVKHFQEVAQLISPLTTAPMAGCLSFYYQIQQGNDNVFSLYTRDVAGLYEEIWKADRPGNAAWNLAEVEFSAPYPMEVIFEVAFNGPKGGYVALDDISFSPVHCQNQTELLFSAVEASCNFEQDLCNFYQDKEGPGWTRVKVKPNMYRAGDHTTGLGYYLLANTKFTSQPGYIGRLYGPSLPGNLQYCLRFHYAIYGFLKMSDTLAVYIFEENHVVQEKIWSVLESPRGVWMQAEITFKKPMPTKVVFMSLCKSFWDCGLVALDDITIQLGSCSSSEKLPPPPGECTFEQDECTFTQEKRNRSSWHRRRGETPTSYTGPKGDHTTGVGYYMYIEASHMVYGQKARLLSRPLRGVSGKHCLTFFYHMYGGGTGLLSVYLKKEEDSEESLLWRRRGEQSISWLRALIEYSCERQHQIIFEAIRGVSIRSDIAIDDVKFQAGPCGEMEDTTQQSSGYSEDLNEIEY
B3: Lysyl Oxidase-like 4 precursor (protein, UniProt Q96JB6 25-756)
chain: QSLGTTKLRLVGPESKPEEGRLEVLHQGQWGTVCDDNFAIQEATVACRQLGFEAALTWAHSAKYGQGEGPIWLDNVRCVGTESSLDQCGSNGWGVSDCSHSEDVGVICHPRRHRGYLSETVSNALGPQGRRLEEVRLKPILASAKQHSPVTEGAVEVKYEGHWRQVCDQGWTMNNSRVVCGMLGFPSEVPVDSHYYRKVWDLKMRDPKSRLKSLTNKNSFWIHQVTCLGTEPHMANCQVQVAPARGKLRPACPGGMHAVVSCVAGPHFRPPKTKPQRKGSWAEEPRVRLRSGAQVGEGRVEVLMNRQWGTVCDHRWNLISASVVCRQLGFGSAREALFGARLGQGLGPIHLSEVRCRGYERTLSDCPALEGSQNGCQHENDAAVRCNVPNMGFQNQVRLAGGRIPEEGLLEVQVEVNGVPRWGSVCSENWGLTEAMVACRQLGLGFAIHAYKETWFWSGTPRAQEVVMSGVRCSGTELALQQCQRHGPVHCSHGGGRFLAGVSCMDSAPDLVMNAQLVQETAYLEDRPLSQLYCAHEENCLSKSADHMDWPYGYRRLLRFSTQIYNLGRTDFRPKTGRDSWVWHQCHRHYHSIEVFTHYDLLTLNGSKVAEGHKASFCLEDTNCPTGLQRRYACANFGEQGVTVGCWDTYRHDIDCQWVDITDVGPGNYIFQVIVNPHYEVAESDFSNNMLQCRCKYDGHRVWLHNCHTGNSYPANAELSLEQEQRLRNNLI

Each molecule was assayed against Heat Shock Protein 90 kDa alpha (cytosolic), class A member 1 isoform 2 (human (endogenous in MDA-MB231)) (UniProt P07900) (assay: affinity purification with mass spectrometry; immunoprecipitation with hsp90α antibody (1 μg) from 1 mg protein of concentrated serum-free conditioned media of MDA-MB231 cells, pre-cleared with protein A beads; washed with RIPA B buffer (50 mM Tris, 150 mM NaCl, 0.5% NP40, 0.25% DOC); SDS-PAGE, Coomassie-stained bands excised for mass spectrometry).

binding, binds:
Albumin precursor (from UniProt P02768)
Granulin precursor (from UniProt P28799 18-593)
Lysyl Oxidase-like 2 precursor (from UniProt Q9Y4K0 26-774)
Plasminogen Activator, tissue type isoform 1 preprotein (from UniProt P00750 36-562)
B1
B2
B3
